Measurements from US8394856B2, “(-)-Hydroxycitric acid for controlling inflammation” (Glykon Technologies Group, LLC, priority 2002, dated 2013).

Test system: C-reactive protein
Test: C-reactive protein in serum of rats fed a 30% fat, approximately 20% simple sugar diet
Format: in vivo
Conditions: salt approximately 76 mg/day; change in CRP over 4 weeks vs control arm
From the text: To test the properties of HCA in various forms under conditions similar to those found in human clinical trials, the inventor arranged for rats to be fed a diet in which 30% of the calories were obtained from fat under standard conditions, with a further approximately 20% of the calories being supplied as simple sugars. Such a dietary combination of fat and simple sugars is noted as promoting a variety of metabolic imbalances and dysfunctions. The rats were intubated twice daily with one of five HCA salts or placebo. On weekends, the HCA was added to the food at an approprate dosage. The amount of HCA in each arm of 8 animals was based on the minimum dosage which had been found effective in the form of the pure trisodium salt of HCA in tests by Hoffmann-La Roche in animals ingesting a 70% glucose diet, i.e., 0.33 mmoles/kg body weight HCA given twice per day. […]
Tests were performed for C-reactive protein. […] Optical Density (OD) readings in the test kit used were 1 unit equals 50 picograms/mL. […]

## O=C([O-])CC(O)(C(=O)[O-])C(O)C(=O)[O-].[K+].[K+].[K+] (stereo not shown) [KHCA, potassium hydroxycitrate]
  Delta versus Control: 0.0005
